Data published in article PMC5841828.
These are yes or no findings as the source states them, for the method shown. In cells and extracts the contact can be indirect. Some binding calls cover weakened binding; strength is not graded here.

By UniProt entry, the sequences of proteins in these tests, tags left out. Residues count along the entry.
UniProt P32297, residues 32-505: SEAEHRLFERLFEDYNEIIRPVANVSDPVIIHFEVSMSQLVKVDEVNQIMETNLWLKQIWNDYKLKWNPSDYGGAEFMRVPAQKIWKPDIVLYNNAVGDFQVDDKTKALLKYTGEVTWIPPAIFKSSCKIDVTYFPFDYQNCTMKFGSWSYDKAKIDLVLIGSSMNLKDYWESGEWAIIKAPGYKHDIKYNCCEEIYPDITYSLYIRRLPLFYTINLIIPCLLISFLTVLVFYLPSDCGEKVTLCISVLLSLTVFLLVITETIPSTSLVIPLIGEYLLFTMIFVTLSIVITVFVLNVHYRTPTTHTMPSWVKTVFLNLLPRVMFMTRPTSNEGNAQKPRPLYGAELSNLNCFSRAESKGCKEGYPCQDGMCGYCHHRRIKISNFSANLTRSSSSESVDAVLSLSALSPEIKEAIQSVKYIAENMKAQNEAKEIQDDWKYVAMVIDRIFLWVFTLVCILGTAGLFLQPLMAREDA
UniProt P30926, residues 22-498: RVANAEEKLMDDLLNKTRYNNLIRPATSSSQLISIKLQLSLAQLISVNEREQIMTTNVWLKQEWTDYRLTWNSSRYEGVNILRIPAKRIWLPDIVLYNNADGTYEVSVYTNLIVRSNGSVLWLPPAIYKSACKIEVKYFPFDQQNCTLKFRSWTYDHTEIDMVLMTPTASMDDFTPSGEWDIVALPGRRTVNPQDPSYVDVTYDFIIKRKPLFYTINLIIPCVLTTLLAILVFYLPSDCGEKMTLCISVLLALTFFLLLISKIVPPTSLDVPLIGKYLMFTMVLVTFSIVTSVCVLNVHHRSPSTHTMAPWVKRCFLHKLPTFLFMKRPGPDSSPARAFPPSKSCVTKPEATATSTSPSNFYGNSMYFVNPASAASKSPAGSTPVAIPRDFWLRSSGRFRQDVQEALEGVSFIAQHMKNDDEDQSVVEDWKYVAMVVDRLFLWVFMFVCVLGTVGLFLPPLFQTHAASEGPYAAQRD
UniProt P30532, residues 23-468: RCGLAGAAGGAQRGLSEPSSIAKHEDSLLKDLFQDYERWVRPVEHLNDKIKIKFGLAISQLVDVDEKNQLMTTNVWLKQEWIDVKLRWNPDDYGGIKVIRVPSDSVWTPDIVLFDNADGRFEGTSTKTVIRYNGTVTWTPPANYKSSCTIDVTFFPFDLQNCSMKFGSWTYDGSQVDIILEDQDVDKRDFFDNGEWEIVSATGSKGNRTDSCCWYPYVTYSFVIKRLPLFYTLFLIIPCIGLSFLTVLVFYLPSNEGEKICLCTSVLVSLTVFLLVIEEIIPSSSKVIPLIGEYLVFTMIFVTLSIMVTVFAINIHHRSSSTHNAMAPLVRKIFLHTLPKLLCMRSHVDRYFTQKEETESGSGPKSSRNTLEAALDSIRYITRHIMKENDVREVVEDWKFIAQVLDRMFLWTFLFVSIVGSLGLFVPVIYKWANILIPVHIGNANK

Molecular target: CHRNA3 (nicotinic acetylcholine receptor α3 subunit) (human (endogenous in HBO cells)) (UniProt P32297)
Assay: co-IP; 2 μg AChRα3 antibody on Protein A/G-plus agarose, incubated with 1 mg HBO whole cell extract (modified RIPA buffer: 50 mM Tris-Cl pH 7.4, 1% Nonidet P-40, 150 mM NaCl, 1 mM EDTA) overnight at 4°C; beads washed three times with RIPA buffer; Western blot; IgG as negative control

Substance | binding
CHRNB4 (nicotinic acetylcholine receptor β4 subunit) (from UniProt P30926-1 22-498) | binds
CHRNA5 (nicotinic acetylcholine receptor α5 subunit) (from UniProt P30532 23-468) | binds
